Test results from PMC6929986.
No constants are given. Whether binding was seen depends on the method and setting. In cells and extracts the contact can be indirect. These calls come from enrichment with a bait or labelling near it, and not all partners need be listed. For part of these data: Tags and fused reporters may be left off the sequences shown. Values belong to the molecule of their own block, whether it stands above or below them.

Protein sequences, listed by entry. Tags and fused reporters are not part of them. Residues count along the entry.
UniProt Q5VYY1: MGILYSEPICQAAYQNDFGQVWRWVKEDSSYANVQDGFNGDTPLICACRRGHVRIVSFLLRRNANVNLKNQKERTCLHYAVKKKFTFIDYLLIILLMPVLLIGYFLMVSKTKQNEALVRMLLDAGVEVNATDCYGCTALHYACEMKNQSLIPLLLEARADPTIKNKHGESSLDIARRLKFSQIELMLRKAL
UniProt P35579: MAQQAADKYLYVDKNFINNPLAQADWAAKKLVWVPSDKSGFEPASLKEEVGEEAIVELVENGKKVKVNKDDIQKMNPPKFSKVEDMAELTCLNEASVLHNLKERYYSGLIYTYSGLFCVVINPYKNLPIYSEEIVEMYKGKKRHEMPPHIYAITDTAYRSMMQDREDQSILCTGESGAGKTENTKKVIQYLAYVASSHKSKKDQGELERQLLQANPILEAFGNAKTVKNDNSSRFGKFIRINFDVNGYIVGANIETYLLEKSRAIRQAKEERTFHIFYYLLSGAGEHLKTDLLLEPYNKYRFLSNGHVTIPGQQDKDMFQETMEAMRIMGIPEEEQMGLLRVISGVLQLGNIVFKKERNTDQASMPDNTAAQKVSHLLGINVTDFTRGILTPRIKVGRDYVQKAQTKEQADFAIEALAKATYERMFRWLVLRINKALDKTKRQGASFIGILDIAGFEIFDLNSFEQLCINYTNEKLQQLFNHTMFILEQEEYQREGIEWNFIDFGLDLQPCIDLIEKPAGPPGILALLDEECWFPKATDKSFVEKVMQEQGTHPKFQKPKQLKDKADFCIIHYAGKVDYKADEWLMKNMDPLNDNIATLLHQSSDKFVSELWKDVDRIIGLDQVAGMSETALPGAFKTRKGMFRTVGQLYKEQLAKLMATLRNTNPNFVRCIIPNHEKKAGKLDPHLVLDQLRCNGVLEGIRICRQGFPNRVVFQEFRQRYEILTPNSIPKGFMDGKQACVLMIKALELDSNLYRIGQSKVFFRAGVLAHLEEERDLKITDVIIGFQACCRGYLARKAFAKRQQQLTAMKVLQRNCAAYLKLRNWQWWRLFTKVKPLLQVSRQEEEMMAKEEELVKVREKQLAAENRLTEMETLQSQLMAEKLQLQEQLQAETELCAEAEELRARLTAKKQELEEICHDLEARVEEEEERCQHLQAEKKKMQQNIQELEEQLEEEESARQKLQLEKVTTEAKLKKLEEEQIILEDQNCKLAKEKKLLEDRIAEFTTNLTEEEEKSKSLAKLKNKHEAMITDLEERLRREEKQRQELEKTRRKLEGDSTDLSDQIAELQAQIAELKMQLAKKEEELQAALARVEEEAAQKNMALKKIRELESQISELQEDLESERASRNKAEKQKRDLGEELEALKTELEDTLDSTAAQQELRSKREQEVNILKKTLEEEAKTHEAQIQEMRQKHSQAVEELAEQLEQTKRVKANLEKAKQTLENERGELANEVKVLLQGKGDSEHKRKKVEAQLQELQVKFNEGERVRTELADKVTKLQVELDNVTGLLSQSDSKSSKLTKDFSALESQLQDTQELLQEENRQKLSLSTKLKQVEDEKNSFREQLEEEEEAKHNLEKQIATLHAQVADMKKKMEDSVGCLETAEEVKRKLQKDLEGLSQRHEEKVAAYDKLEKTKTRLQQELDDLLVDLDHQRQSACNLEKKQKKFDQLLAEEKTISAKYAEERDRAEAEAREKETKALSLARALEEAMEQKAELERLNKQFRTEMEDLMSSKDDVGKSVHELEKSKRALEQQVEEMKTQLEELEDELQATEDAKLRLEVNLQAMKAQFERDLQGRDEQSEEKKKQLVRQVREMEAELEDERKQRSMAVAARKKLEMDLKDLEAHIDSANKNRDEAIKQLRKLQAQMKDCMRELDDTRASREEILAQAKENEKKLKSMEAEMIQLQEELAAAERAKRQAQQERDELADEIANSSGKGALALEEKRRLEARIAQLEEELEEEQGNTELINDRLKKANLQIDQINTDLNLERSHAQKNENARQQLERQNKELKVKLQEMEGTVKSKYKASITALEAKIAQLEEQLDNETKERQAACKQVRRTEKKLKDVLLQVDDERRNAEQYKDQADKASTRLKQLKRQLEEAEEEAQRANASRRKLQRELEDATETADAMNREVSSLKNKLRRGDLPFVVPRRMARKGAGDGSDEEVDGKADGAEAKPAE
UniProt Q15118, residues 29-436: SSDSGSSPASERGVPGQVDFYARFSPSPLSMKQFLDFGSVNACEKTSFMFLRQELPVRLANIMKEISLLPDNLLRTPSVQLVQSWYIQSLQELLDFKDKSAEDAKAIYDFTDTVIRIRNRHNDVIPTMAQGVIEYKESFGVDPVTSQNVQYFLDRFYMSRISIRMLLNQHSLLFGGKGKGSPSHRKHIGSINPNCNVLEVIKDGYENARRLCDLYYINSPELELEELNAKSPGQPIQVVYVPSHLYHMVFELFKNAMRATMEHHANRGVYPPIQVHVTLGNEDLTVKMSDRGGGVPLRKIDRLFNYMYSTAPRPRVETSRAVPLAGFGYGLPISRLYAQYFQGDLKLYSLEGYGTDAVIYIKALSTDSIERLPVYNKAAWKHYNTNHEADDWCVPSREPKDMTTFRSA

Tests used:
[1] = target: Halo-ANKRD22 fusion protein (Ankyrin repeat domain-containing protein 22 fused with Halo-tag) (UniProt Q5VYY1); experiment: affinity purification with mass spectrometry; Halo-tag pull-down from the nuclear fraction of organoid-cultured SW620 and RKO cells stably expressing Halo-ANKRD22, mass spectrometry; eluent of a mixture of wild-type SW620 and RKO cells as negative control
[2] = target: Halo-ANKRD22 fusion protein (Ankyrin repeat domain-containing protein 22 fused with Halo-tag) (UniProt Q5VYY1); experiment: affinity purification with mass spectrometry; Halo-tag pull-down: RIPA lysate of RKO cells stably expressing Halo-ANKRD22 (conventional 2D or organoid culture) on HaloLink resin, 60 min at RT, five washes, elution with 1% SDS; eluted proteins identified by reverse-phase HPLC with an ion-trap mass spectrometer; control cells as negative control
[3] = target: Halo-ANKRD22 fusion protein (Ankyrin repeat domain-containing protein 22 fused with Halo-tag) (UniProt Q5VYY1); experiment: as above; remark: listed apart in the source

binding [1]: binds
Molecule: Myosin-9 (from UniProt P35579 1-1960)

binding [2]: binds
Molecule: pyruvate dehydrogenase kinase isoform 1 (PDK1) (from UniProt Q15118 29-436) (enzyme)

binding [3]: binds
B1: Extended Synaptotagmin-1 (E-Syt1) (protein, UniProt Q9BSJ8 1-1104)
chain: MERSPGEGPSPSPMDQPSAPSDPTDQPPAAHAKPDPGSGGQPAGPGAAGEALAVLTSFGRRLLVLIPVYLAGAVGLSVGFVLFGLALYLGWRRVRDEKERSLRAARQLLDDEEQLTAKTLYMSHRELPAWVSFPDVEKAEWLNKIVAQVWPFLGQYMEKLLAETVAPAVRGSNPHLQTFTFTRVELGEKPLRIIGVKVHPGQRKEQILLDLNISYVGDVQIDVEVKKYFCKAGVKGMQLHGVLRVILEPLIGDLPFVGAVSMFFIRRPTLDINWTGMTNLLDIPGLSSLSDTMIMDSIAAFLVLPNRLLVPLVPDLQDVAQLRSPLPRGIIRIHLLAARGLSSKDKYVKGLIEGKSDPYALVRLGTQTFCSRVIDEELNPQWGETYEVMVHEVPGQEIEVEVFDKDPDKDDFLGRMKLDVGKVLQASVLDDWFPLQGGQGQVHLRLEWLSLLSDAEKLEQVLQWNWGVSSRPDPPSAAILVVYLDRAQDLPLKKGNKEPNPMVQLSIQDVTQESKAVYSTNCPVWEEAFRFFLQDPQSQELDVQVKDDSRALTLGALTLPLARLLTAPELILDQWFQLSSSGPNSRLYMKLVMRILYLDSSEICFPTVPGCPGAWDVDSENPQRGSSVDAPPRPCHTTPDSQFGTEHVLRIHVLEAQDLIAKDRFLGGLVKGKSDPYVKLKLAGRSFRSHVVREDLNPRWNEVFEVIVTSVPGQELEVEVFDKDLDKDDFLGRCKVRLTTVLNSGFLDEWLTLEDVPSGRLHLRLERLTPRPTAAELEEVLQVNSLIQTQKSAELAAALLSIYMERAEDLPLRKGTKHLSPYATLTVGDSSHKTKTISQTSAPVWDESASFLIRKPHTESLELQVRGEGTGVLGSLSLPLSELLVADQLCLDRWFTLSSGQGQVLLRAQLGILVSQHSGVEAHSHSYSHSSSSLSEEPELSGGPPHITSSAPELRQRLTHVDSPLEAPAGPLGQVKLTLWYYSEERKLVSIVHGCRSLRQNGRDPPDPYVSLLLLPDKNRGTKRRTSQKKRTLSPEFNERFEWELPLDEAQRRKLDVSVKSNSSFMSRERELLGKVQLDLAETDLSQGVARWYDLMDNKDKGSS
